Not every detail of the peptide structures is certain; ends, links or a residue may be inferred.
Tests used:
Format in all cases: in vivo, human
[1] = system: normal volunteer subjects; assay: CVLT (California Verbal Learning Test); settings: subjects on drug, baseline vs post-test
[2] = system: normal volunteer subjects; assay: BECK Depression Scale; settings: elevated, but not clinically significant, baseline scores
[3] = system: normal volunteer subjects; assay: Spielberger Trait State Anxiety; settings: i.v. 0.033-0.133 mg/kg per day, seven days; one row per patient: 1 alcohol abuse, 2 polydrug abuse, 3 dyslexia, 4 and 5 depression, 6 no NP
[4] = system: normal volunteer subjects; assay: POMS (Profile of Mood State); settings: changes of one standard deviation or more
male research subjects = assay: NIMH Peptide T testing in volunteer subjects: clinical effects observed; settings: 0.033 to 0.133 mg/kg/da for seven days; HIV antibody negative volunteers
[5] = system: HIV seronegative normal volunteer with history of mild psoriasis; assay: Psoriasis lesions in an HIV seronegative normal volunteer

C[C@@H](N)C(=O)N[C@@H](CO)C(=O)N[C@H](C(=O)N[C@H](C(=O)N[C@H](C(=O)N[C@@H](CC(N)=O)C(=O)N[C@@H](Cc1ccc(O)cc1)C(=O)N[C@H](C(N)=O)[C@@H](C)O)[C@@H](C)O)[C@@H](C)O)[C@@H](C)O [Peptide T, D-Ala-Ser-Thr-Thr-Thr-Asn-Tyr-Thr-amide]
CVLT long delay recall [1]: increased ability
BECK depression scores in subjects with prior histories of depression [2]: improved
SPIELBERGER [3]: - +
POMS fatigue and vigor scores [4]: decreased fatigue and increased vigor scores
symptoms of substance abuse, childhood dyslexia and depression (male research subjects): ameliorated
multiple red, scaling pruritic areas in scalp and lower neck (psoriasis) ([5]; HIV seronegative volunteer, intranasally and sublingually 12.5 mg BID for one week): improvement
return of lesions or new lesions ([5]; one month follow-up subsequent to testing): the lesions in question did not return, nor did new lesions appear

Reference: US5248667A, “Method of treating psoriasis using synthetic peptide compositions” (The United States of America as represented by the …, priority 1991, dated 1993)
